Data as given in the supplement of paper PMC11006884.
Shown are results outside the selection of targets with a hit, which stands elsewhere. The data scatter; read single values as rough. The list shows a part of the results, in another mix than the full data.

Chains of the proteins cited; added tags and fusions are not shown. Lines headed by an entry give the natural chain unless they say otherwise; changes in a name come on top.
UniProt P21333, whole entry, looked up: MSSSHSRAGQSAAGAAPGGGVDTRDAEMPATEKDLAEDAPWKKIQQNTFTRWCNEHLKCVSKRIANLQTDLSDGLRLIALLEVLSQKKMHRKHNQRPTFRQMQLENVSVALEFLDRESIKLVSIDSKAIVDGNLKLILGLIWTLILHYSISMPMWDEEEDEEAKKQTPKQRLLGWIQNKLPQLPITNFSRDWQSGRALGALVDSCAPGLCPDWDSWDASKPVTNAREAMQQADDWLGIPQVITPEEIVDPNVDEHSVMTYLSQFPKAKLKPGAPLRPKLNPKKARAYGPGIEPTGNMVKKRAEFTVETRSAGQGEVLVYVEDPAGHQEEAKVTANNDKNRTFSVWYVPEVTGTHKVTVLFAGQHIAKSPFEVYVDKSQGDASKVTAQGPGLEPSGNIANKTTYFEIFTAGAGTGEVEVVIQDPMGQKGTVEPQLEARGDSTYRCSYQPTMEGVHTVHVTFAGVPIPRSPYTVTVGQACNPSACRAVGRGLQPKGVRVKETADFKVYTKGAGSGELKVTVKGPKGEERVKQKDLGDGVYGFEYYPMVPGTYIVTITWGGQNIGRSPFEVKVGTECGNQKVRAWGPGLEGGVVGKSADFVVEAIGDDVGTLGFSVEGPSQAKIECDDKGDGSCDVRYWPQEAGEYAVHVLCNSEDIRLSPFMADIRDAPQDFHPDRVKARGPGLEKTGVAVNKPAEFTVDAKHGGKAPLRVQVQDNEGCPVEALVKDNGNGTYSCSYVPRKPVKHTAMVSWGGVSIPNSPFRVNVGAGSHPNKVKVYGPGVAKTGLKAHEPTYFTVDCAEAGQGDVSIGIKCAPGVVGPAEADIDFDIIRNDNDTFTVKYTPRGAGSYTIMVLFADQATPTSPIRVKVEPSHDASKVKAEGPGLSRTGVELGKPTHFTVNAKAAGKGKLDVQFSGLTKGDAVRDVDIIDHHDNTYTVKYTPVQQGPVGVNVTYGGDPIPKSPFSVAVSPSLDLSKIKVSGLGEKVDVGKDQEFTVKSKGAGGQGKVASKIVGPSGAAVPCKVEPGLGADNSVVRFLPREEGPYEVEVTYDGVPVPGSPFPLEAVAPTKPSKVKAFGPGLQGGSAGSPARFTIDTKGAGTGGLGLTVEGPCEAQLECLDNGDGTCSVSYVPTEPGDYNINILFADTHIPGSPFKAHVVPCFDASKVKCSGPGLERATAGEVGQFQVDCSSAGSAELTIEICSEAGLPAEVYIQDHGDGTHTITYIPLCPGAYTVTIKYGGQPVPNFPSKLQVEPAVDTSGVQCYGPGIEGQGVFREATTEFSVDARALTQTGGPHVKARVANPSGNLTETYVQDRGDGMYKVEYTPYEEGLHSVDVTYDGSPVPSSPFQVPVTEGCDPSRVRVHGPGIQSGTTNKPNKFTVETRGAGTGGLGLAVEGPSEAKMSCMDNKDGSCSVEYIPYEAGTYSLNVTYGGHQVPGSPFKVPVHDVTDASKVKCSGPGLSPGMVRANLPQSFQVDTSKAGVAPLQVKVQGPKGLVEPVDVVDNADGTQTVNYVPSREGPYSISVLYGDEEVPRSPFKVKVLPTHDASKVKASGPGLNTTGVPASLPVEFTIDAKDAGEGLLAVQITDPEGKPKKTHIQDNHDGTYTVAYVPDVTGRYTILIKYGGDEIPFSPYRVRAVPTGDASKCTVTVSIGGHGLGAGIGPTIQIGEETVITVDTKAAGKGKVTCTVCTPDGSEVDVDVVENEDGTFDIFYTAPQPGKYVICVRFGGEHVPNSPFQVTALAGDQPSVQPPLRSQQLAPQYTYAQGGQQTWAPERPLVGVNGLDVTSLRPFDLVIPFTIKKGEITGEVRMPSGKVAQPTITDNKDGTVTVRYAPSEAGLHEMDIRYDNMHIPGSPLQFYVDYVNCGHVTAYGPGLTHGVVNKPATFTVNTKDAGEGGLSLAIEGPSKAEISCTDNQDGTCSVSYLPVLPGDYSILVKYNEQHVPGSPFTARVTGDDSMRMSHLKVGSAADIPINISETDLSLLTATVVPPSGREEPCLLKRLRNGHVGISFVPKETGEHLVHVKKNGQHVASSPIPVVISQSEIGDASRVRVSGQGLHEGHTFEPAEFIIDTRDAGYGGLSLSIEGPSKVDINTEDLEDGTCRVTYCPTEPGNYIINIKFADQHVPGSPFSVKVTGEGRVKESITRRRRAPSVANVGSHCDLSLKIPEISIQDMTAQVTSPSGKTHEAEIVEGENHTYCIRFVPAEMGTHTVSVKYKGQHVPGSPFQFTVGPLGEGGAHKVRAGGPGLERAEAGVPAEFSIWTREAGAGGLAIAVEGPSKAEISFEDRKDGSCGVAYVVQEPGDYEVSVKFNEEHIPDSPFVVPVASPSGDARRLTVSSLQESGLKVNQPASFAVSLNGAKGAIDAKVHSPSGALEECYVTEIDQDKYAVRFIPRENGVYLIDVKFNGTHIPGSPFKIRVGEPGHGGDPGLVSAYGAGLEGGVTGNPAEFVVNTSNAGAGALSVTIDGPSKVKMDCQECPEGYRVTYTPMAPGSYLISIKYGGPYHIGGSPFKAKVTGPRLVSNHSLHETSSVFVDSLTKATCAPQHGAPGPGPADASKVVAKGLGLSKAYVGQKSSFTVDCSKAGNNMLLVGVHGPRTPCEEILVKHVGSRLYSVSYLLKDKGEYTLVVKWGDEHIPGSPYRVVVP
UniProt P26358: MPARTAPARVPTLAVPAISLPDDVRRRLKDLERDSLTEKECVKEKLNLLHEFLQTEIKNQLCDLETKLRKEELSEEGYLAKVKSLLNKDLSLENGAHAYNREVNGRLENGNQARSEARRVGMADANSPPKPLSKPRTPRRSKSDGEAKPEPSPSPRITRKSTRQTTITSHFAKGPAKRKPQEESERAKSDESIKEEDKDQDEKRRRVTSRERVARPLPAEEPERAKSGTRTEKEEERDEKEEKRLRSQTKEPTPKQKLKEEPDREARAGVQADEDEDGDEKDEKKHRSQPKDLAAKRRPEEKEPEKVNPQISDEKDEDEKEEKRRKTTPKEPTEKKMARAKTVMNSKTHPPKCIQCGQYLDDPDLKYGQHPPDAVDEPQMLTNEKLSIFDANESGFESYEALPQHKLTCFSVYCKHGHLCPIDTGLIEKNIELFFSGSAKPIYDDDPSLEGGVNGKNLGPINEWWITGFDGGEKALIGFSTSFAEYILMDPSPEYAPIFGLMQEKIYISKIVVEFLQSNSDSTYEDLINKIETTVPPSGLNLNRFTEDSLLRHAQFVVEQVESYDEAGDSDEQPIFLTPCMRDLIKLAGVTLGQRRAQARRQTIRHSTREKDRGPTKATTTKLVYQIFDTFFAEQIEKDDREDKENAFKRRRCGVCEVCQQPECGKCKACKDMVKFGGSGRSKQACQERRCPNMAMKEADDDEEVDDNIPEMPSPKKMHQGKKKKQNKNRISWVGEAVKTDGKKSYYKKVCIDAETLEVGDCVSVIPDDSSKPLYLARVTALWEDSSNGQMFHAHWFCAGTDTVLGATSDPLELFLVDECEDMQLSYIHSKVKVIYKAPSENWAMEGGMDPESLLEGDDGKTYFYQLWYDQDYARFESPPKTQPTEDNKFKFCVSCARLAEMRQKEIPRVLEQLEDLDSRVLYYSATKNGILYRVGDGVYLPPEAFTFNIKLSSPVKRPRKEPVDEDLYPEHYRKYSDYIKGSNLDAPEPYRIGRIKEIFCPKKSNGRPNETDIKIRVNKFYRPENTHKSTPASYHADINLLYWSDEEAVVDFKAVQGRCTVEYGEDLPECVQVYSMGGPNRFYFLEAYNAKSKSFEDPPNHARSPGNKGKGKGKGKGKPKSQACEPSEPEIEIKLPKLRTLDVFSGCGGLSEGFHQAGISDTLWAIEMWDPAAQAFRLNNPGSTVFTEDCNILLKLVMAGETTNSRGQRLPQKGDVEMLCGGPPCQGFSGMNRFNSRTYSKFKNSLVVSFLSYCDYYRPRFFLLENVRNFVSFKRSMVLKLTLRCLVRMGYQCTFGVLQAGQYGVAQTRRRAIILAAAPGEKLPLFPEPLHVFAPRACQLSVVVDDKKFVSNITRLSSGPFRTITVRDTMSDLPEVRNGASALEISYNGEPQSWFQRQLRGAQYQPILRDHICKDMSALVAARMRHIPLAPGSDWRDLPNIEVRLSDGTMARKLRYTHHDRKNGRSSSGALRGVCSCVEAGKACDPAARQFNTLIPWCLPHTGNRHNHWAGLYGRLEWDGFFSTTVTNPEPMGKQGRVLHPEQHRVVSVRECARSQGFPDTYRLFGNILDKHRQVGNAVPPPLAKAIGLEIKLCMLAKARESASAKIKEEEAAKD
UniProt P20810: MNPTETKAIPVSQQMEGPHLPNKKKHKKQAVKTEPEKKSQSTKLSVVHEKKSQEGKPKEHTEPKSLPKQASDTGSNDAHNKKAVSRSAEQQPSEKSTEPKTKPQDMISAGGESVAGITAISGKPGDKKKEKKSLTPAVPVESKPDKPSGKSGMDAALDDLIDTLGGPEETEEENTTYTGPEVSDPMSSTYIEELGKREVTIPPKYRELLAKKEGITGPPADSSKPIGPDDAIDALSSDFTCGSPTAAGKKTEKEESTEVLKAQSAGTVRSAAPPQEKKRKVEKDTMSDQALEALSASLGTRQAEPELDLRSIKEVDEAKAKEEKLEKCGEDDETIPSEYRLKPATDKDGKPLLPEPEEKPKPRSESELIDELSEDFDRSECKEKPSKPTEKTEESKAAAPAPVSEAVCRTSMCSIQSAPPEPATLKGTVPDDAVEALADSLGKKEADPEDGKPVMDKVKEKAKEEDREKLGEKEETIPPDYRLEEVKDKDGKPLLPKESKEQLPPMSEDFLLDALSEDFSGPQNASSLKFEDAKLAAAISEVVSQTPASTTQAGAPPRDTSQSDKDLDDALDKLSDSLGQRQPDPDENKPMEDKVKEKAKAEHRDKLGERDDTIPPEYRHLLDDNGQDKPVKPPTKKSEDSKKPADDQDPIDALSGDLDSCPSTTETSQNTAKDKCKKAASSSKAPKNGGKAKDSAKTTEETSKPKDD
UniProt P20700: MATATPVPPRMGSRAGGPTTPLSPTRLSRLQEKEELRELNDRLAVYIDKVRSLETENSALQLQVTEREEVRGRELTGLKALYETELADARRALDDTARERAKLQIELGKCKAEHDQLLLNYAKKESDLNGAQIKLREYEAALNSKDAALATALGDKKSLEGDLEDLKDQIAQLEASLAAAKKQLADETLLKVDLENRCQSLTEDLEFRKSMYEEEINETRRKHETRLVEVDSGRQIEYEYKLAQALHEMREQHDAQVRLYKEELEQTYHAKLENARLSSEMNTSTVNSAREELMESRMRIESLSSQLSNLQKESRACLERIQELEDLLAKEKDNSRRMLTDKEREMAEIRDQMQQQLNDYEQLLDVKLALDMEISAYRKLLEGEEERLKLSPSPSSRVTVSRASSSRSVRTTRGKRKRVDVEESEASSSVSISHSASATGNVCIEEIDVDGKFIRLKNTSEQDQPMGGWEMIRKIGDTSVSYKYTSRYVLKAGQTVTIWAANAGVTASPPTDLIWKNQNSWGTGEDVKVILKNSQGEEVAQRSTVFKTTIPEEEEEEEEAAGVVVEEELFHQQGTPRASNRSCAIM
UniProt P28482, whole entry, looked up: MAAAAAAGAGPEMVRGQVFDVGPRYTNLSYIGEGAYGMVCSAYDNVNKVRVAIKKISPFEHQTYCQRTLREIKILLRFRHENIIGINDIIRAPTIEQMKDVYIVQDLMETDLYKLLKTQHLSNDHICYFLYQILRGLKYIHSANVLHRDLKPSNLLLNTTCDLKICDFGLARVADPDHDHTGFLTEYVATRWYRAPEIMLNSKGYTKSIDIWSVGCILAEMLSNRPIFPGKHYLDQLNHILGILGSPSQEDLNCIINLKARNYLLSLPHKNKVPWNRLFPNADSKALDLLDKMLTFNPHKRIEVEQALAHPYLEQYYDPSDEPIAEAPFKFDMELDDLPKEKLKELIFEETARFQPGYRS
UniProt P21291: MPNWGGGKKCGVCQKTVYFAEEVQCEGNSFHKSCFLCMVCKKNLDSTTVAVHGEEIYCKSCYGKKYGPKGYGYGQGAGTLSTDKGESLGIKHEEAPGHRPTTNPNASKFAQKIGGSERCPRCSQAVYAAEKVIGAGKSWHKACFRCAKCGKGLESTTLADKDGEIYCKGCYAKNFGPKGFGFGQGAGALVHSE
UniProt P23258, whole entry, looked up: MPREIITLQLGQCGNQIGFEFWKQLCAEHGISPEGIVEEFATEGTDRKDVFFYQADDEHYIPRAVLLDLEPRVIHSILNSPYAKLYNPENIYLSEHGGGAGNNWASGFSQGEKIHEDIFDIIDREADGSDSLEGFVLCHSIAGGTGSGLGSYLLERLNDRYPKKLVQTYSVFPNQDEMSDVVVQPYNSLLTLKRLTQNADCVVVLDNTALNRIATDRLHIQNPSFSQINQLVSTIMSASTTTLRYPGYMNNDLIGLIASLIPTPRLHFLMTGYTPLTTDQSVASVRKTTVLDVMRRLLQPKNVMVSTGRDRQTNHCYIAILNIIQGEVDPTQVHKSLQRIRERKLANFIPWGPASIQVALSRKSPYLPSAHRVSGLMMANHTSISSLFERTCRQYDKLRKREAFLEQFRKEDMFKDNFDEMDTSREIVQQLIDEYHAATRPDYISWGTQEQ

Compound: COC(=O)/C=C/c1ccccc1 [methyl cinnamate]
Assay: log2 ratio of iodoacetamide-alkyne labeling of the cysteine site, DMSO over compound (competition); higher = stronger covalent engagement of the cysteine by the compound, active = 1 or more
Settings: 500 µM; treatment time 1 h; system: HEK293T cell lysate
Summary of the method: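 Electrophile (500 µM) or vehicle was added to HEK293T lysate (2 mg/mL) for 1 h at ambient temperature before iodoacetamide alkyne labelling (1 h) and click coupling to sCIP-TMT reagents. After pooling, overnight trypsin digestion at 37 °C, streptavidin enrichment and acid elution, peptides were measured by Orbitrap Eclipse LC-MS/MS with FAIMS and quantified in FragPipe. Each cysteine's log2 competition ratio compares mean control-channel with mean compound-channel reporter intensity, control over compound. Data came from duplicate channels across three replicates, excluding cysteines quantified in only one replicate.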

Target	log2 ratio of iodoacetamide-alkyne labeling
COMT C238 (UniProt P21964)	inactive: 0.0188
SON C2070 (UniProt P18583)	inactive: 0.38
RRM1 C790 (UniProt P23921)	inactive: 0.194
ARF4 C159 (UniProt P18085)	inactive: 0.0458
FLNA C1165 (UniProt P21333)	inactive: 0.373
EEF1B2 C161 (UniProt P24534)	inactive: -0.0525
ECHS1 C111 (UniProt P30084)	inactive: 0.2
DNMT1 C1226 (UniProt P26358)	inactive: -0.00214
ATP6V1B2 C162 (UniProt P21281)	inactive: 0.12
ABCD3 C24 (UniProt P28288)	inactive: -0.0367
DNMT1 C1125 (UniProt P26358)	inactive: 0.317
UniProt P28290_C599	inactive: 0.78
VARS C663 (UniProt P26640)	inactive: 0.0316
FBL C99 (UniProt P22087)	inactive: 0.166
MSN C284 (UniProt P26038)	inactive: 0.0351
LAP3 C313 (UniProt P28838)	inactive: 0.374
CAST C408 (UniProt P20810)	inactive: 0.299
RPL10 C71 (UniProt P27635)	inactive: 0.335
TKT C42 (UniProt P29401)	inactive: -0.141

Target	log2 ratio of iodoacetamide-alkyne labeling
DNMT1 C62 (UniProt P26358)	inactive: 0.136
GTF2E2 C208 (UniProt P29084)	inactive: -0.23
LMNB1 C110 (UniProt P20700)	inactive: 0.193
UniProt P28482_C65	inactive: -0.0494
UniProt P22413_C807	inactive: -0.14
TPP2 C967 (UniProt P29144)	inactive: 0.197
CSRP1 C58 (UniProt P21291)	inactive: 0.0778
PSMA1 C156 (UniProt P25786)	inactive: -0.23
TUBG1 C138 (UniProt P23258)	inactive: 0.158
FLNA C1157 (UniProt P21333)	inactive: 0.369
UniProt P25398_C50	inactive: 0.0589
UniProt P26639_C656	inactive: 0.127
FECH C196 (UniProt P22830)	inactive: 0.136
FLNA C623 (UniProt P21333)	inactive: 0.0546
LMNB1 C198 (UniProt P20700)	inactive: 0.246
PAICS C81 (UniProt P22234)	inactive: -0.0135
FLNA C1018 (UniProt P21333)	inactive: 0.255
UniProt P27361_C271	inactive: -0.0102

2 entries picked at random from those above:
Target	log2 ratio of iodoacetamide-alkyne labeling
LMNB1 C198 (UniProt P20700)	inactive: 0.246
FLNA C1157 (UniProt P21333)	inactive: 0.369
